Converted amounts (≈) assume the structure as drawn.

The assay relates to S. aureus. The assay can be described thus: Minimum Inhibitory Concentration (MIC) assay. The format is cell-based. Particulars: Staphylococcus aureus; in solution, 37° C., 18 to 24 h, n=3. The method, then:
A glycerol stock of S. aureus was struck on a tryptic soy agar plate and incubated overnight at 37° C. Single colonies were then picked and diluted into tryptic soy broth (TSB) and left to grow overnight. Next, the culture was diluted approximately 40-fold into fresh TSB and grown to mid-log phase (OD600=0.4 to 0.8). 5 mg/mL stock solutions of Vancomycin-TCO and vancomycin in DMSO were serially diluted two-fold with TBS across the wells of a non-treated 96-well plate, with concentrations ranging from 0.0625 to 128 μg/mL. The mid-log phase cultures were diluted to a final concentration of 5×10^5 colony forming units (CFU)/mL in TSB then 50 μL was added to each antimicrobial-containing well, giving a final antimicrobial concentration range of 0.031 to 64 μg/mL. All the plates were covered and incubated at 37° C. for 18 to 24 h. The MIC was defined as the lowest compound concentration at which no bacterial growth was visible (n=3).

By MIC is commonly meant the lowest concentration found to suppress growth. Low readings indicate inhibition by little substance, high ones a need for much substance. As for `CN[C@H](CC(C)C)C(=O)N[C@H]1C(=O)N[C@@H](CC(N)=O)C(=O)N[C@H]2C(=O)N[C@H]3C(=O)N[C@H](C(=O)N[C@H](C(=O)O)c4cc(O)cc(O)c4-c4cc3ccc4O)[C@H](O)c3ccc(c(Cl)c3)Oc3cc2cc(c3O[C@@H]2O[C@H](CO)[C@@H](O)[C@H](O)[C@H]2O[C@H]2C[C@](C)(N)[C@H](O)[C@H](C)O2)Oc2ccc(cc2Cl)[C@H]1O` [Vancomycin, reference compound], the MIC came out at 1 µg/mL (≈ 0.69 µM).

(Values after patent US12454550B2, “Compositions and methods for bioorthogonal surface coating” (Rutgers, The State University of New Jersey, priority 2021, dated 2025).)
